Reference: publication PMC5263256

T1: V5-tagged Zfp609 (mouse) (UniProt Q8BZ47)
T1 sequence: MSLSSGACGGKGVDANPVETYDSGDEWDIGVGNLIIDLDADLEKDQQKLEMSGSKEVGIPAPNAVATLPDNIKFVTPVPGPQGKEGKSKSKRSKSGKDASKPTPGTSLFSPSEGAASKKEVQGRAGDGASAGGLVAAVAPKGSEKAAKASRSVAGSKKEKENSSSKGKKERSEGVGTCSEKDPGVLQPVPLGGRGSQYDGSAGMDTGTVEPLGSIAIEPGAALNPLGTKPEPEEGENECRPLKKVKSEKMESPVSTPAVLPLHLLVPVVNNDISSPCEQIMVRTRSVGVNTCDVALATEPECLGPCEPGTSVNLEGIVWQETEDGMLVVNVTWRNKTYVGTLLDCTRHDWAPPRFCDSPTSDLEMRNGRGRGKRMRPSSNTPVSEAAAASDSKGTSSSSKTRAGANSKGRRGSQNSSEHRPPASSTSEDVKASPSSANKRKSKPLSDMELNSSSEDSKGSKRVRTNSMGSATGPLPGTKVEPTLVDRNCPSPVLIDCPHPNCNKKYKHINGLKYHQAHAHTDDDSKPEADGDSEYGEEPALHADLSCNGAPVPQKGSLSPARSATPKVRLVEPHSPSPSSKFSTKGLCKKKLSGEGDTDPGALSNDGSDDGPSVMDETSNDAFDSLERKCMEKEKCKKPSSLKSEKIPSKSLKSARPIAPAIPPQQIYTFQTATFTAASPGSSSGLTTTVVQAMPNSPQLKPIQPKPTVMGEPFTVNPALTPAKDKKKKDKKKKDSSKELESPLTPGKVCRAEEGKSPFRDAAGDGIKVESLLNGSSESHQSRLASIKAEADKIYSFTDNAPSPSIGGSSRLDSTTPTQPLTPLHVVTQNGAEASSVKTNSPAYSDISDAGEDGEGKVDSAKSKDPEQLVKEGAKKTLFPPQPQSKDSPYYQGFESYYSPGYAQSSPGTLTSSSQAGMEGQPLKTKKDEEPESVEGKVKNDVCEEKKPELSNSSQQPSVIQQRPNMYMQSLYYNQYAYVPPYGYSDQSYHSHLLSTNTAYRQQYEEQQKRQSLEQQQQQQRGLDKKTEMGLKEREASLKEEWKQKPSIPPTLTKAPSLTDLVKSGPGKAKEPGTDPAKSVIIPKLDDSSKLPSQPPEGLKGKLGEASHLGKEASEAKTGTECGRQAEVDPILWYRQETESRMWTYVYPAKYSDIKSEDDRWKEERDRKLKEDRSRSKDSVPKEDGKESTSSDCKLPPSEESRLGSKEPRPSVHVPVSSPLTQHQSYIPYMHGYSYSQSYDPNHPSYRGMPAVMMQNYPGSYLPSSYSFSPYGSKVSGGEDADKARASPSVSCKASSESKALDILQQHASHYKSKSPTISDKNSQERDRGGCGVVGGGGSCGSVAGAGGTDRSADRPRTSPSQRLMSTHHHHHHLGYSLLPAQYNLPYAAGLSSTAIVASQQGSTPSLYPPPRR


biological target: T1, V5-tagged Zfp609 (mouse); assay: affinity purification with mass spectrometry; anti-V5 agarose beads on nuclear extract of Zfp609-V5-expressing NSCs, 3 hr at 4°C, 225 U Benzonase, washes in C-100* (100 mM KCl, 0.02% NP-40); NSCs not expressing Zfp609-V5 as control; hits present in two purifications

Binder | binding
Mau2 (protein, UniProt Q9D2X5 1-619) MAAQAAAAAQAAAAAQAAAAQAAQAEAAESWYLALLGFAEHFRTSSPPKIRLCVHCLQAVFPFKPPQRIEARTHLQLGSVLYHHTKNSEQARSHLEKAWLISQQIPQFEDVKFEAASLLSELYCQENSVDAAKPLLRKAIQISQQTPYWHCRLLFQLAQLHTLEKDLVSACDLLGVGAEYARVVGSEYTRALFLLSKGMLLLMERKLQEVHPLLTLCGQIVENWQGNPIQKESLRVFFLVLQVTHYLDAGQVKSVKPCLKQLQQCIQTISTLHDDEILPSNPADLFHWLPKEHMCVLVYLVTVMHSMQAGYLEKAQKYTDKALMQLEKLKMLDCSPILSSFQVILLEHIIMCRLVTGHKATALQEISQVCQLCQQSPRLFSNHAAQLHTLLGLYCVSVNCMDNAEAQFTTALRLTNHQELWAFIVTNLASVYIREGNRHQEVLYSLLERINPDHSFPVSSHCLRAAAFYVRGLFSFFQGRYNEAKRFLRETLKMSNAEDLNRLTACSLVLLGHIFYVLGNHRESNNMVVPAMQLASKIPDMSVQLWSSALLRDLNKACGNAMDAHEAAQMHQNFSQQLLQDHIEACSLPEHNLITWTDGPPPVQFQAQNGPNTSLASLL | binds
Mlf2 (protein, UniProt Q99KX1 1-247) MFRFMRDVEPEDPMFLMDPFAIHRQHMSRMLSGGFGYSPFLSITDGNMPATRPASRRMQAGAVSPFGMLGMSGGFMDMFGMMNDMIGNMEHMAAGGNCQTFSSSTVISYSNTGDGAPKVYQETSEMRSAPGGIRETRRTVRDSDSGLEQMSIGHHIRDRAHILQRSRNHRTGDQEERQDYINLDESEAAAFDDEWRRETSRYRQQRPLEFRRHEASVGGGRRAEGPPRLAIQGPEDSPSRQSRRYDW | binds
Cnp (protein, UniProt P16330 1-420) MNTSFTRKSHTFLPKLFFRKMSSSGAKEKPELQFPFLQDEDTVATLHECKTLFILRGLPGSGKSTLARLILEKYHDGTKMVSADAYKIIPGSRADFSEAYKRLDEDLAGYCRRDIRVLVLDDTNHERERLDQLFEMADQYQYQVVLVEPKTAWRLDCAQLKEKNQWQLSADDLKKLKPGLEKDFLPLYFGWFLTKKSSETLRKAGQVFLEELGNHKAFKKELRHFISGDEPKEKLELVSYFGKRPPGVLHCTTKFCDYGKAAGAEEYAQQEVVKRSYGKAFKLSISALFVTPKTAGAQVVLTDQELQLWPSDLDKPSASEGLPPGSRAHVTLGCAADVQPVQTGLDLLDILQQVKGGSQGEAVGELPRGKLYSLGKGRWMLSLTKKMEVKAIFTGYYGKGKPVPIHGSRKGGAMQICTII | binds

The next lines start with the values.

binding | Binder
binds | Stag2 (protein, UniProt O35638 1-1231) MIAAPEIPTDFNLLQESETHFSSDTDFEDIEGKNQKQGKGKTCKKGKKGPAEKGKSGNGGGKPPSGSNRMNGHHQQNGVENMMLFEVVKMGKSAMQSVVDDWIESYKHDRDIALLDLINFFIQCSGCKGVVTAEMFRHMQNSEIIRKMTEEFDEDSGDYPLTMAGPQWKKFKSSFCEFIGVLVRQCQYSIIYDEYMMDTVISLLTGLSDSQVRAFRHTSTLAAMKLMTALVNVALNLSINMDNTQRQYEAERNKMIGKRANERLELLLQKRKELQENQDEIENMMNAIFKGVFVHRYRDAIAEIRAICIEEIGIWMKMYSDAFLNDSYLKYVGWTMHDKQGEVRLKCLTALQGLYYNKELNSKLELFTSRFKDRIVSMTLDKEYDVAVQAIKLLTLVLQSSEEVLTAEDCENVYHLVYSAHRPVAVAAGEFLYKKLFSRRDPEEDGLMKRRGRQGPNANLVKTLVFFFLESELHEHAAYLVDSMWDCATELLKDWECMNSLLLEEPLSGEEALTDRQESALIEIMLCTIRQAAECHPPVGRGTGKRVLTAKEKKTQLDDRTRITELFAVALPQLLAKYSVDAEKVTNLLQLPQYFDLEIYTTGRLEKHLDALLRQIRNIVEKHTDTDVLEACSKTYHALCNEEFTIFNRVDISRSQLIDELADKFNRLLEDFLQEGEEPDEDDAYQVLSTLKRITAFHNAHDLSKWDLFACNYKLLKTGIENGDMPEQIVIHALQCAHYVILWQLAKITESTSTKEDLLRLKKQMRVFCQICQHYLTNVNTTVKEQAFTILCDILMIFSHQIMSGGRDMLEPLVYTPDSSLQSELLSFILDHVFIEQDDDSNSADGQQEDEASKIEALHKRRNLLAAFCKLIVYTVVEMNTAADIFKQYMKYYNDYGDIIKETMSKTRQIDKIQCAKTLILSLQQLFNEMIQENGYNFDRSSSTFSGIKELARRFALTFGLDQLKTREAIAMLHKDGIEFAFKEPNPQGESHPPLNLAFLDILSEFSSKLLRQDKRTVYVYLEKFMTFQMSLRREDVWLPLMSYRNSLLAGGDDDTMSVISGMSSRGSTVRSKKSKPSTGKRKVVEGMQLALPEESSSSDSMWLSREQTLHTPVMMQTPQLTSTIMREPKRLRPEDSFMSVYPMQAEHHQTPLDYNRRGTSLMEDDEEPIVEDVMMSSEGRIEDLNEGMDFDTMDIDLPPSKNRRERTELKPDFFDPASIMDESVLGVSMF
binds | Smc1a (protein, UniProt Q9CU62 1-1233) MGFLKLIEIENFKSYKGRQIIGPFQRFTAIIGPNGSGKSNLMDAISFVLGEKTSNLRVKTLRDLIHGAPVGKPAANRAFVSMVYSEEGAEDRTFARVIVGGSSEYKINNKVVQLHEYSEELEKLGILIKARNFLVFQGAVESIAMKNPKERTALFEEISRSGELAQEYDKRKKEMVKAEEDTQFNYHRKKNIAAERKEAKQEKEEADRYQRLKDEVVRAQVQLQLFKLYHNEVEIEKLNKELASKNKEIEKDKKRMDKVEDELKEKKKELGKMMREQQQIEKEIKEKDSELNQKRPQYIKAKENTSHKIKKLEAAKKSLQNAQKHYKKRKGDMDELEKEMLSVEKARQEFEERMEEESQSQGRDLTLEENQVKKYHRLKEEASKRAATLAQELEKFNRDQKADQDRLDLEERKKVETEAKIKQKLREIEENQKRIEKLEEYITTSKQSLEEQKKLEGELTEEVEMAKRRIDEINKELNQVMEQLGDARIDRQESSRQQRKAEIMESIKRLYPGSVYGRLIDLCQPTQKKYQIAVTKVLGKNMDAIIVDSEKTGRDCIQYIKEQRGEPETFLPLDYLEVKPTDEKLRELKGAKLVIDVIRYEPPHIKKALQYACGNALVCDNVEDARRIAFGGHQRHKTVALDGTLFQKSGVISGGASDLKAKARRWDEKAVDKLKEKKERLTEELKEQMKAKRKEAELRQVQSQAHGLQMRLKYSQSDLEQTKTRHLALNLQEKSKLESELANFGPRINDIKRIIQSREREMKDLKEKMNQVEDEVFEEFCREIGVRNIREFEEEKVKRQNEIAKKRLEFENQKTRLGIQLDFEKNQLKEDQDKVHMWEQTVKKDENEIEKLKKEEQRHMKIIDETMAQLQDLKNQHLAKKSEVNDKNHEMEEIRKKLGGANKEMTHLQKEVTAIETKLEQKRSDRHNLLQACKMQDIKLPLSKGTMDDISQEEGSSQGEESVSGSQRTSSIYAREALIEIDYGDLCEDLKDAQAEEEIKQEMNTLQQKLNEQQSVLQRIAAPNMKAMEKLESVRDKFQETSDEFEAARKRAKKAKQAFEQIKKERFDRFNACFESVATNIDEIYKALSRNSSAQAFLGPENPEEPYLDGINYNCVAPGKRFRPMDNLSGGEKTVAALALLFAIHSYKPAPFFVLDEIDAALDNTNIGKVANYIKEQSTCNFQAIVISLKEEFYTKAESLIGVYPEQGDCVISKVLTFDLTKYPDANPNPNEQ
binds | Rad21 (protein, UniProt Q61550 1-635) MFYAHFVLSKRGPLAKIWLAAHWDKKLTKAHVFECNLESSVESIISPKVKMALRTSGHLLLGVVRIYHRKAKYLLADCNEAFIKIKMAFRPGVVDLPEENREAAYNAITLPEEFHDFDQPLPDLDDIDVAQQFSLNQSRVEEITMREEVGNISILQENDFGDFGMDDREIMREGSAFEDDDMLVSTSASNLLLEPEQSTSNLNEKMNHLEYEDQYKDDNFGEGNDGGILDDKLISNNDGGIFDDPPALSEAGVMLPEQPAHDDMDEDDNGSLGGPDSPDSVDPVEPMPTMTDQTTLVPNEEEAFALEPIDITVKETKAKRKRKLIVDSVKELDSKTIRAQLSDYSDIVTTLDLAPPTKKLMMWKETGGVEKLFFLPAQPLWNNRLLKLFTRCLTPLVPEDLRKRRKGGEADNLDEFLKEFENPEVPREEQQPQQQQPQPQRDVIDEPIIEEPSRLQDSVMEASRTTIEESAMPPPPPQGVKRKAGQIDPEPSIPPQQVEQMEIPPVELPPEEPPNICQLIPELELLPEKEKEKEKEKEEEEEEEDEDASGGDQDQEERRWNKRTQQMLHGLQRALAKTGAESISLLELCRNTNRKQAAAKFYSFLVLKKQQAIELTQEEPYSDIIATPGPRFHII

Results are given in words; binding and its absence hold for the method and conditions named. In cells and extracts the contact can be indirect. These calls come from enrichment with a bait or labelling near it, and not all partners need be listed. Tags and fused reporters may be left off the sequences shown.
